Results deposited as PubChem BioAssay AID1259308 (NCATS, 2017)

Purpose: 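Candidate targets for better recombinant protein yield in mammalian cells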 (primary screen)
System: human HEK293 embryonic kidney cells stably expressing firefly luciferase (HEK-CMV-Luc2-Hygro)
Reagents: single siRNA against human genes, 0.8 pmol siRNA per well
Timing: 72 h
Measurement: 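Luciferase light (ONE-Glo) measured on one replicate plate set and viability (CellTiter-Glo) on the other, scaled to a negative control siRNA, with robust z-scores and luciferase per cell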
Scale: total luciferase, z-score and total luciferase, % of control: higher = more reporter protein produced
Rule for the call: 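An siRNA counts as active if its total luciferase robust z-score exceeds 3; genes with two or more such siRNAs out of three were retested with fresh siRNAs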
Meaning of the calls: active = raised luciferase; inactive = no rise
Shown is one part, drawn at random, of about 59,000 reagents. About 1,510 of them (2.6%) count as active. 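Calls use total luciferase alone and ignore viability, so some active siRNAs may act by altering cell number.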 Entries without a mark were called inactive. The numbers tell different reagents against one gene apart. Not all columns of the deposit are shown.

no.	Gene	siRNA no.	total luciferase, z-score	total luciferase, % of control
1	BCL2L1	1	-0.607	69.8
2	BCL2L1	2	1.91	120
3	BCL2L1	3	0.365	89.1
4	DNAJC18	1	-0.115	79.6
5	DNAJC18	2	-0.0676	80.5
6	DNAJC18	3	0.00454	82
7	GRID2	1	-0.771	66.6
8	GRID2	2	0.697	95.8
9	GRID2	3	-0.323	75.5
10	RAD1	1	0.874	99.3
11	RAD1	2	-0.209	77.7
12	RAD1	3	0.184	85.6
13	CLTC	1	-1.04	61.1
14	CLTC	2	-0.0258	81.4
15	CLTC	3	-0.804	65.9
16	ASTN2	1	-0.563	70.7
17	ASTN2	2	-0.0247	81.4
18	ASTN2	3	-0.548	71
19	MTMR12	1	0.0592	83.1
20	MTMR12	2	0.44	90.6
21	MTMR12	3	0.212	86.1
22	ZNF226	1	-0.802	65.9
23	ZNF226	2	-0.719	67.6
24	ZNF226	3	-0.684	68.3
25	MARK2P10	1	0.333	88.5
26	MARK2P10	2	-0.963	62.7
27	MARK2P10	3	0.885	99.5
28	CCDC169	1	0.988	102
29	CCDC169	2	-1.03	61.5
30	CCDC169	3	-0.261	76.7
31	GPR160	1	-1.16	58.8
32	GPR160	2	-0.908	63.8
33	GPR160	3	0.62	94.2
34	BCL6B	1	-0.87	64.6
35	BCL6B	2	-0.219	77.5
36	BCL6B	3	2.74	136
37	ZNF391	1	4.71 (active)	176
38	ZNF391	2	0.491	91.6
39	ZNF391	3	-0.45	72.9
40	MPEG1	1	0.696	95.7
41	MPEG1	2	-0.783	66.3
42	MPEG1	3	0.517	92.2
43	C1orf53	1	1.04	102
44	C1orf53	2	0.26	87.1
45	C1orf53	3	0.659	95
46	GRHL3	1	-1.24	57.2
47	GRHL3	2	-0.599	70
48	GRHL3	3	0.0262	82.4
49	VPS50	1	-0.0201	81.5
50	VPS50	2	2.82	138
51	VPS50	3	2.7	136
52	COX6B2	1	1.06	103
53	COX6B2	2	-1.18	58.4
54	COX6B2	3	-1.23	57.3
55	SAMD8	1	0.589	93.6
56	SAMD8	2	0.135	84.6
57	SAMD8	3	0.142	84.7
58	SMAD4	1	0.41	90
59	SMAD4	2	0.646	94.7
60	SMAD4	3	-0.58	70.3
61	CRACR2B	1	-0.549	71
62	CRACR2B	2	7.42 (active)	230
63	CRACR2B	3	-1.5	52.1
64	CATSPER2	1	0.224	86.4
65	CATSPER2	2	-0.874	64.5
66	CATSPER2	3	-0.135	79.2
67	PDCD4	1	0.571	93.3
68	PDCD4	2	3.73 (active)	156
69	PDCD4	3	-0.29	76.1
70	CCSER2	1	-0.972	62.6
71	CCSER2	2	-2.67	28.8
72	CCSER2	3	-0.732	67.3
73	KYAT1	1	2.54	132
74	KYAT1	2	-0.325	75.4
75	KYAT1	3	1.04	103
